Reference: paper PMC9776959
Results are given in words; binding and its absence hold for the method and conditions named. In cells and extracts the contact can be indirect. Some results given as binding are weak or reduced against the parent protein; the word gives no strength. For some assays here: Where a sequence is shown, tags or fusion partners need not be part of it.

By UniProt entry, the sequences of proteins in these tests, tags left out.
UniProt Q14676: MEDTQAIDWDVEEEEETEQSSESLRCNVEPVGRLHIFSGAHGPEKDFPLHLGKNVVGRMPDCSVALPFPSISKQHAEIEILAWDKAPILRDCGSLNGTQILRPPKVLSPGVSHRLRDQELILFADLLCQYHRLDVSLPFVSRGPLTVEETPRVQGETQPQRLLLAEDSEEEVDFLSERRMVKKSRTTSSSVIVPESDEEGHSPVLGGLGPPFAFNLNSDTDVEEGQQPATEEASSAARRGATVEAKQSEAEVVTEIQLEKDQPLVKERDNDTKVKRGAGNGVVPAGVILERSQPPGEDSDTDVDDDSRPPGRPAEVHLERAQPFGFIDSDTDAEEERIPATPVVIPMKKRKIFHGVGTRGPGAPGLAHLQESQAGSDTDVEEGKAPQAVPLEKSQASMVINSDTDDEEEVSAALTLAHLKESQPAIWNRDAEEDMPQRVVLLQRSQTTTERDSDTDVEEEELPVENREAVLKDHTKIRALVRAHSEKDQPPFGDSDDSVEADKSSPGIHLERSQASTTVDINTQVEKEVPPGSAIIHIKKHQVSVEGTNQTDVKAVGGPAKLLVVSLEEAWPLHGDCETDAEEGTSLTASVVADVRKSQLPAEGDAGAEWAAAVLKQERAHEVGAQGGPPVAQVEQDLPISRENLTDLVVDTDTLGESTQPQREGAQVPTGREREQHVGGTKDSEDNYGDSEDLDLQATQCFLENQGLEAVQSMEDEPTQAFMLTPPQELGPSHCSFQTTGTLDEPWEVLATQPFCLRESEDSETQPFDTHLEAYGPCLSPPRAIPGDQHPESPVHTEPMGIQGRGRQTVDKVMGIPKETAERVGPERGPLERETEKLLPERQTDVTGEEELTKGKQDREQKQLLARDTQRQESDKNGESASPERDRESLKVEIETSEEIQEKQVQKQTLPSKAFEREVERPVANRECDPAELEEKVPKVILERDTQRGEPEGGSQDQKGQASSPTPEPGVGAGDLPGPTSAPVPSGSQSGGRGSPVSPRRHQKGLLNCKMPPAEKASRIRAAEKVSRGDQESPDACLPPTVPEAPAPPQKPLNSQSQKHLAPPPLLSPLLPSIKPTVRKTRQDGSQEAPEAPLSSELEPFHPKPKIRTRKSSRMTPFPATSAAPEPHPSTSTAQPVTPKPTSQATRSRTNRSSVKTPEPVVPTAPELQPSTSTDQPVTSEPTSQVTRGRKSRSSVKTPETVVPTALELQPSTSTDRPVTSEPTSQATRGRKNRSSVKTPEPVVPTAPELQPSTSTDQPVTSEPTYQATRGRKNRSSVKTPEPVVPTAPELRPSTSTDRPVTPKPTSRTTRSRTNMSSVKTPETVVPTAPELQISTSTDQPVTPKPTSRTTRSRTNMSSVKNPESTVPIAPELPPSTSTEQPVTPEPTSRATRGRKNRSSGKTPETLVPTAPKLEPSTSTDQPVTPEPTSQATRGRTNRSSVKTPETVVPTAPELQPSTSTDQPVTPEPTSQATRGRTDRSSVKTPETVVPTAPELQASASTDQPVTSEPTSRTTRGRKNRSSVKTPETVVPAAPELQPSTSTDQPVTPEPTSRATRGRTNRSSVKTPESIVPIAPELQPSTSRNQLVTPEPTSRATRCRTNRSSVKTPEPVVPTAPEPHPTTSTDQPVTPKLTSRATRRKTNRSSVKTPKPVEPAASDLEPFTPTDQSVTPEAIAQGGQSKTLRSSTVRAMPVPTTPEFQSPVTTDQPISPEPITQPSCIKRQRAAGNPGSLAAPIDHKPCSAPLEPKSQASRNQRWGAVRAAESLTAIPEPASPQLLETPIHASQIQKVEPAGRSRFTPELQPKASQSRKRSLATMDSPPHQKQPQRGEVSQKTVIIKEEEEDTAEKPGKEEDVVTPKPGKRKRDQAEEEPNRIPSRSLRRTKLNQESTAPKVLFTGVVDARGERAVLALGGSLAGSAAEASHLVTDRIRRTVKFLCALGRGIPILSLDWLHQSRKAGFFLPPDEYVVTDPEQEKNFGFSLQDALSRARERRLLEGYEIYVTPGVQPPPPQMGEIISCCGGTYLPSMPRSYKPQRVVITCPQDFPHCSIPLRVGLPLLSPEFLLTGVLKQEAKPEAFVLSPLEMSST
UniProt O60934: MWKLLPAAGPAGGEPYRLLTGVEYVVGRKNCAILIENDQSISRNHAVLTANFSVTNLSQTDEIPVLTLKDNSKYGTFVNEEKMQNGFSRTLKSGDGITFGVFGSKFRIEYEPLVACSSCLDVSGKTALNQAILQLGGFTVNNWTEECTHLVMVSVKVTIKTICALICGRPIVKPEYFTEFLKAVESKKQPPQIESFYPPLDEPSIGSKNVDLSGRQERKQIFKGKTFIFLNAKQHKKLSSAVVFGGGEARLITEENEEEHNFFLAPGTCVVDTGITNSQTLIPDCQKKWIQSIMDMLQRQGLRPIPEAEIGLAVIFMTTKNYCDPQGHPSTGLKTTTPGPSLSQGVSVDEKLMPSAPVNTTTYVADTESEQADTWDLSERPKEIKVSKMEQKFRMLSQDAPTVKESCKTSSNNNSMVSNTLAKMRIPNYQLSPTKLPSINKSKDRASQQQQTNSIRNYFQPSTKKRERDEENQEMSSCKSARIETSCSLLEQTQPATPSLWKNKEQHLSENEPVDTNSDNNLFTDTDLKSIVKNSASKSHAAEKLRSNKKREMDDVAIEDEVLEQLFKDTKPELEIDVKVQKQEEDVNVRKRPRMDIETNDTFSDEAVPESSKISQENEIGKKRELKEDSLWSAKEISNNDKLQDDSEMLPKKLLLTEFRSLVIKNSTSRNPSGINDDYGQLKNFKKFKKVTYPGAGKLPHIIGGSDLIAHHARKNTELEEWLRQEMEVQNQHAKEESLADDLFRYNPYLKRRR

Assays:
[1] = biological target: T1, endogenous MRE11 (human (endogenous in U-2-OS and DLD-1)) (UniProt P49959); test: co-IP; immunoprecipitation of MRE11; cells with or without irradiation, IAA-induced TRIP13 depletion or mirin
T1 sequence: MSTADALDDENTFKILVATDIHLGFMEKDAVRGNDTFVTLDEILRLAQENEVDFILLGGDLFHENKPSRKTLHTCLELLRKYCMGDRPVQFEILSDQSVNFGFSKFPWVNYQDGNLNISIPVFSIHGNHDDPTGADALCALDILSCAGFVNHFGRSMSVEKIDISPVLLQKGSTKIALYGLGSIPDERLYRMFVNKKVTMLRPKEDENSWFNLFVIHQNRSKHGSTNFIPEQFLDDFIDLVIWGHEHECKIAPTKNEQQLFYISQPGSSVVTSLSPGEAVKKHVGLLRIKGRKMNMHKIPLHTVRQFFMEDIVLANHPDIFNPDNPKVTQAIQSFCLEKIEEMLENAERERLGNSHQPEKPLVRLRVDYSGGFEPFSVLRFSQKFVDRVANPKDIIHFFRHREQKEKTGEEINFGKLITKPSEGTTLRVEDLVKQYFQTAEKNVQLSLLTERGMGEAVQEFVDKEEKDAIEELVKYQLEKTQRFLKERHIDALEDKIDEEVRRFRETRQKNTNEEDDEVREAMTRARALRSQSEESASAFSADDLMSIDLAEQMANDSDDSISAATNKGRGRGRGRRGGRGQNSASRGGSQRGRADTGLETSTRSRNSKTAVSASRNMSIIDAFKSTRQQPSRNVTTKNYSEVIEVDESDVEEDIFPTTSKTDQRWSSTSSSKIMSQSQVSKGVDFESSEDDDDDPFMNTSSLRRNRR

3xFLAG-TRIP13 (human) = biological target: T2, 3xFLAG-TRIP13 (human) (UniProt Q15645); test: co-IP; FLAG immunoprecipitation from cells overexpressing 3xFLAG-TRIP13 and the Myc-MRE11 domain deletion series; buffer X (100 mM Tris-HCl, 250 mM NaCl, 1 mM EDTA, 1% NP-40) with Benzonase, 4 °C
T2 sequence: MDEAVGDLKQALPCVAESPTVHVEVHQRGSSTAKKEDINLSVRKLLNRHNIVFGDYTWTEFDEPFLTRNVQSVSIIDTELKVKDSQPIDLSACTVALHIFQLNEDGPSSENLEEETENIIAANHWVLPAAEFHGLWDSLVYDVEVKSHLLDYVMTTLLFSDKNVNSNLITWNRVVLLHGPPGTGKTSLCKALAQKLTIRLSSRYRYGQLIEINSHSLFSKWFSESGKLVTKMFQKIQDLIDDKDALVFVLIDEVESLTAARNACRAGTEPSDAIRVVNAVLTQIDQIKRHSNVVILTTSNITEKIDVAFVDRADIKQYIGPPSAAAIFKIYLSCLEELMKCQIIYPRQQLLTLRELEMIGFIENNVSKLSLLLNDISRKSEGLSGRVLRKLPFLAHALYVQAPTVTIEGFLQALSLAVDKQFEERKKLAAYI

Substance	binding [1]	binding (3xFLAG-TRIP13 (human))
MDC1 (from UniProt Q14676 1-2089)	binds	–
NBS1 (from UniProt O60934 1-754)	–	no binding
